PubChem BioAssay AID743454, Peter MacCallum Cancer Centre | 2014
Test: 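Knock-downs lowering viability or raising caspase 3/7 activity in vorinostat-treated resistant cells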 (primary screen). Cells: human HCT116-VR colon cancer cells, selected for vorinostat resistance. Reagents: siRNA pool against human genes, 40 nM siRNA pool. Timing: vorinostat for 24 h, read-out about 72 h after transfection. Challenge: vorinostat at 2.5 µM final. Read-out: 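Two measures, CellTiter-Fluor viability and luminescent caspase 3/7 activity, each as fold change against same-plate mock wells, mean of duplicates, then screen-wide robust z-score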. Direction: viability robust z-score: higher = more viable cells than screen typical; caspase robust z-score: higher = more caspase 3/7 activity than screen typical. Hit rule: 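Hits are knock-downs in viability class RV1/RV2 or caspase class CA1/CA2, excluding ones that killed cells in the no-drug cell-count arm; hits then retested with single siRNAs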.
Here is an unselected part of about 18,000 reagents tested. 450 of all reagents (2.5%) were called active. 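Single biological run; no consistent viability z cut-off exists, so the class columns, not z-scores, define the calls.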 Unmarked entries are inactive.

PFN4 (profilin family member 4)
- viability hit class: no change
- caspase hit class: no change
- viability robust z-score: -0.5
- caspase robust z-score: 0.87

SPACA3 (sperm acrosome associated 3)
- viability hit class: no change
- caspase hit class: no change
- viability robust z-score: 0.7
- caspase robust z-score: -0.21

SFXN4 (sideroflexin 4)
- viability hit class: no change
- caspase hit class: no change
- viability robust z-score: -0.58
- caspase robust z-score: 2.44

KRT34 (keratin 34)
- viability hit class: no change
- caspase hit class: no change
- viability robust z-score: 0.68
- caspase robust z-score: 0.55

B3GNT6
- viability hit class: no change
- caspase hit class: no change
- viability robust z-score: -2.58
- caspase robust z-score: 4.75

METTL16 (methyltransferase 16, RNA N6-adenosine)
- viability hit class: no change
- caspase hit class: no change
- viability robust z-score: -0.82
- caspase robust z-score: -0.75

Part of the list above, reformatted.
KRT34 (keratin 34) | viability hit class = no change; caspase hit class = no change; viability robust z-score = 0.68; caspase robust z-score = 0.55
B3GNT6 | viability hit class = no change; caspase hit class = no change; viability robust z-score = -2.58; caspase robust z-score = 4.75

The results go on:
IMMP2L (inner mitochondrial membrane peptidase subunit 2)
- viability hit class: no change
- caspase hit class: no change
- viability robust z-score: -0.5
- caspase robust z-score: 1.01

ATG5 (autophagy related 5)
- viability hit class: no change
- caspase hit class: no change
- viability robust z-score: 0.68
- caspase robust z-score: 0.05

NUDT16 (nudix hydrolase 16)
- viability hit class: no change
- caspase hit class: no change
- viability robust z-score: -0.16
- caspase robust z-score: 0.64

B3GALT4 (beta-1,3-galactosyltransferase 4)
- viability hit class: no change
- caspase hit class: no change
- viability robust z-score: -1.31
- caspase robust z-score: -0.92

RIPOR2 (RHO family interacting cell polarization regulator 2)
- viability hit class: no change
- caspase hit class: no change
- viability robust z-score: -0.44
- caspase robust z-score: 1.52

GBA2 (glucosylceramidase beta 2)
- viability hit class: no change
- caspase hit class: no change
- viability robust z-score: 0.86
- caspase robust z-score: -0.54
